Results are given in words; binding and its absence hold for the method and conditions named. Binding seen in cells or lysates may run through a third protein. Some results given as binding are weak or reduced against the parent protein; the word gives no strength.
Biological target: NF-κB p65 RelA (mouse (endogenous in AML-12 and BMDMs)) (UniProt Q04207)
Test: co-IP; AML-12 cells and BMDMs treated with genipin or vehicle (also genipin with GW9662), lysed in NP-40 buffer; p65 precipitated with anti-NF-kB p65/RelA mAb on Protein A/G magnetic beads; PPARγ detected by blot

Sequences of proteins named here, by UniProt entry; tags and fusion partners are left off.
UniProt Q04207: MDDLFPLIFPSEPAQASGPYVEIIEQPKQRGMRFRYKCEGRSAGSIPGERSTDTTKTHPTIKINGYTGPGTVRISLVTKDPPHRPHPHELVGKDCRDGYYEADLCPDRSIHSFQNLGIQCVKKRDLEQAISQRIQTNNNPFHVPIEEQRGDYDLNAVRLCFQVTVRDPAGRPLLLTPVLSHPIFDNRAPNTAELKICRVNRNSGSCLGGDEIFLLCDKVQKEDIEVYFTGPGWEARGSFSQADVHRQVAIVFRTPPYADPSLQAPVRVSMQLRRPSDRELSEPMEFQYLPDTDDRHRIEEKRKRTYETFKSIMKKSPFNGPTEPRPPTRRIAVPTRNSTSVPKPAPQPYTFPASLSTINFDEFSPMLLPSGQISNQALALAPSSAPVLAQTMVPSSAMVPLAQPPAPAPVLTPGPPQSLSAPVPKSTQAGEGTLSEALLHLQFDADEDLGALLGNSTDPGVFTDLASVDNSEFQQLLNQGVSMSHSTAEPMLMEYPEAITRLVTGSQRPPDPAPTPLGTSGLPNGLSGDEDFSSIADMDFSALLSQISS
UniProt P37238: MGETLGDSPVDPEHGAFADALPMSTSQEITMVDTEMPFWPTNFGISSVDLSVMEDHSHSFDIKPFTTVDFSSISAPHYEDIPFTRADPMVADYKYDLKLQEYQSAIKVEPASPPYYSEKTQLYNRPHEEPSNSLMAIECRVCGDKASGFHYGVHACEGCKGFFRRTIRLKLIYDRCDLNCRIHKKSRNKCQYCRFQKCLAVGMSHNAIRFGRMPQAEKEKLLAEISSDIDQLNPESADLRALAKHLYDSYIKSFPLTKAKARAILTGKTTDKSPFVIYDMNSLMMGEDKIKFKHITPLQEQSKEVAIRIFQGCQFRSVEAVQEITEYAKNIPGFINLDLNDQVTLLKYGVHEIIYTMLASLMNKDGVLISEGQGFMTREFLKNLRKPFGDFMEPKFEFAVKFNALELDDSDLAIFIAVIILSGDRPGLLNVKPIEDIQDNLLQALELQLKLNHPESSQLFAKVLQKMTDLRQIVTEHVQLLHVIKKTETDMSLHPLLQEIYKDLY

- binding: binds
Substance: PPARγ (from UniProt P37238 1-505)
